Results reported in the supplement of paper PMC10849652.
The other results are listed elsewhere or left out.

By UniProt entry, the sequences of proteins in these tests, tags left out. Where a name states a change or a piece, a line headed by the entry shows the natural chain unless it says otherwise.
UniProt P04062: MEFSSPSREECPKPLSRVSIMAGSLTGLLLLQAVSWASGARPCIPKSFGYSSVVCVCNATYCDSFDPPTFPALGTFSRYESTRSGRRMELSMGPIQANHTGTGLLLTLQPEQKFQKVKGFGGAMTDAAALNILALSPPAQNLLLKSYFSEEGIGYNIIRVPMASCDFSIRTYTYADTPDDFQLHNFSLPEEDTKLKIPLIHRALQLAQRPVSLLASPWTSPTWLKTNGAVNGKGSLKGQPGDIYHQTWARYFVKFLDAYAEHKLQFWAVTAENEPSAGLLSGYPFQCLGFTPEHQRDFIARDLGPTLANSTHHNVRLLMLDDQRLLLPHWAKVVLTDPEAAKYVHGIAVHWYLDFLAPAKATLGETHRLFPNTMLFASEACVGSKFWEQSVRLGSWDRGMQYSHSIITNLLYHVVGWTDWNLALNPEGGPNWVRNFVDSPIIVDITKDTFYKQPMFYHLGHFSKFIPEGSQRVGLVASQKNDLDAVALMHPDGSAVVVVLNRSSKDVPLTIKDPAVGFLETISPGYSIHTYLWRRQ
UniProt P36268: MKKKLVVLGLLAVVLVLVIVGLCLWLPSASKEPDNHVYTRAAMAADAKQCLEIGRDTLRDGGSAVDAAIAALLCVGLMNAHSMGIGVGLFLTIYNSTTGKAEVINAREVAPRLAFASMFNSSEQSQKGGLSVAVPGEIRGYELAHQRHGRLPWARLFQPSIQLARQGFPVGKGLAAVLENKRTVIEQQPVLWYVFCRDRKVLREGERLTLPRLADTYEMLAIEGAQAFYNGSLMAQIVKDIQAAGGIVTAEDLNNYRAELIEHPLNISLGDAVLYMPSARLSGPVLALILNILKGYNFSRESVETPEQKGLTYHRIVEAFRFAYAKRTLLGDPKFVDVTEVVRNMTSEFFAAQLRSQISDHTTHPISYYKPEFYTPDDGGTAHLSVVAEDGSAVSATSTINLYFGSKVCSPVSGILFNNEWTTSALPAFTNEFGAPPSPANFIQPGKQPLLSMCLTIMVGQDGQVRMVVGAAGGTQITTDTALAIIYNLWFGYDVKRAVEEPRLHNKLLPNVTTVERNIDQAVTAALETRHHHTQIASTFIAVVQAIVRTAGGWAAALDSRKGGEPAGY
UniProt Q96AE4: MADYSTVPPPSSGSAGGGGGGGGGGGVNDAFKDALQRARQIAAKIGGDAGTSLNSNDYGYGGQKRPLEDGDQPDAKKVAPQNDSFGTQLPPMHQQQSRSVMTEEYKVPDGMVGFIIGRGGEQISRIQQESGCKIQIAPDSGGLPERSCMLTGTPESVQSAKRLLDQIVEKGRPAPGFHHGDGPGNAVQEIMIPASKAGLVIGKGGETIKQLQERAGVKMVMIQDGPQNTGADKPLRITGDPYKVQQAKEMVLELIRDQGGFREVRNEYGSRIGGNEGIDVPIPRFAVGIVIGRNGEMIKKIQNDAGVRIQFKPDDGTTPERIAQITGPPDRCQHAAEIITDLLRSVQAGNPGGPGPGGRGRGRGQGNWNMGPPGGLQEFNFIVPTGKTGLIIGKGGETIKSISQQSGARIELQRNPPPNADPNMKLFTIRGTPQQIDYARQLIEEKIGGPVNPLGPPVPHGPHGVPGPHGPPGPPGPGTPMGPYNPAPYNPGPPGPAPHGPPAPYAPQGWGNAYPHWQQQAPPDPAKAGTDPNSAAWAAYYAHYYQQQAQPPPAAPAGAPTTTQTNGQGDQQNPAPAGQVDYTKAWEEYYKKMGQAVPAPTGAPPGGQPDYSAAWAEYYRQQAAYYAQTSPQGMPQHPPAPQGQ
UniProt P22102: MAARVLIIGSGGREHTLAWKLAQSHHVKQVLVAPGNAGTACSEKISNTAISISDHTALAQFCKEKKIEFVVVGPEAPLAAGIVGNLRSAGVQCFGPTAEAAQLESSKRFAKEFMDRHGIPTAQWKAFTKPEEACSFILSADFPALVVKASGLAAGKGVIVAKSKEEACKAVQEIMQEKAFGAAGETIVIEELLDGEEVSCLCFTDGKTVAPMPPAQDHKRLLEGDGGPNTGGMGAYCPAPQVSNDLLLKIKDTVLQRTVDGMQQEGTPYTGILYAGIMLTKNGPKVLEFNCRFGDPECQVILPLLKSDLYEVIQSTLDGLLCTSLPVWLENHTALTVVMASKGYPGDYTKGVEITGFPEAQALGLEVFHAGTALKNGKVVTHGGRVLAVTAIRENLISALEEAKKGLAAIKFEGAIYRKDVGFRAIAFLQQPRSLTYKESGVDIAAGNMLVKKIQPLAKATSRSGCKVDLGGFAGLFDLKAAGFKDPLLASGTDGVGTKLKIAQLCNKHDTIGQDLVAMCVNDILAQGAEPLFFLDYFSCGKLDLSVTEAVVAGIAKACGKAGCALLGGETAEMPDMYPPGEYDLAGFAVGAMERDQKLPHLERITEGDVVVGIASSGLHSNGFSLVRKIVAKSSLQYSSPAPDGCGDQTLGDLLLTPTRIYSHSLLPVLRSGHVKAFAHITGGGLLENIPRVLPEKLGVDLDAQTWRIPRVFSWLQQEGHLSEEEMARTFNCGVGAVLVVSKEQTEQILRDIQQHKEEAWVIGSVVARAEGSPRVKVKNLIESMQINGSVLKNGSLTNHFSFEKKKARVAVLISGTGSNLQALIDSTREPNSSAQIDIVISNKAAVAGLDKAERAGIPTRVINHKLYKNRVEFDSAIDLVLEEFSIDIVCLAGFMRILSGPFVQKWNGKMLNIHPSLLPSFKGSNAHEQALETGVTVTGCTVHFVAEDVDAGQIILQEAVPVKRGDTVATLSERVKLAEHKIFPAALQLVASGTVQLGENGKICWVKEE
UniProt Q9H3C7, whole entry, looked up: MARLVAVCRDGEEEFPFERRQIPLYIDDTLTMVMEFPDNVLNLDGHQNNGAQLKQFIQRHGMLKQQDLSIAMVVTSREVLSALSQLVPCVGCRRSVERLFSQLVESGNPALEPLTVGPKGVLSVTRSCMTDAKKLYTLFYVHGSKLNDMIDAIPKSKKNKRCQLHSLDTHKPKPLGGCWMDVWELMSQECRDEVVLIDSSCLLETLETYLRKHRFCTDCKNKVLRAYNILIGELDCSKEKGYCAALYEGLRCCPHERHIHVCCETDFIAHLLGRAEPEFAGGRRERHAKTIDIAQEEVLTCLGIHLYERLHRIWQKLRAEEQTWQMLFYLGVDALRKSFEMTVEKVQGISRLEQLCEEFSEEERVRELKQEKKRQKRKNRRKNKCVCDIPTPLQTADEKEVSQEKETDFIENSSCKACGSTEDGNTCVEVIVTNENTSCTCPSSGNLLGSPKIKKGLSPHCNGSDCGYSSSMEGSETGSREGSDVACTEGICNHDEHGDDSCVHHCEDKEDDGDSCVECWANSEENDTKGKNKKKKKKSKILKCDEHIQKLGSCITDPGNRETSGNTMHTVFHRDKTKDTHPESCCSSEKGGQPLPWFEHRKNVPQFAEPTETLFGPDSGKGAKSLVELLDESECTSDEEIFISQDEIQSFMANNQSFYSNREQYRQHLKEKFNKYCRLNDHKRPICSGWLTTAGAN
UniProt P38435: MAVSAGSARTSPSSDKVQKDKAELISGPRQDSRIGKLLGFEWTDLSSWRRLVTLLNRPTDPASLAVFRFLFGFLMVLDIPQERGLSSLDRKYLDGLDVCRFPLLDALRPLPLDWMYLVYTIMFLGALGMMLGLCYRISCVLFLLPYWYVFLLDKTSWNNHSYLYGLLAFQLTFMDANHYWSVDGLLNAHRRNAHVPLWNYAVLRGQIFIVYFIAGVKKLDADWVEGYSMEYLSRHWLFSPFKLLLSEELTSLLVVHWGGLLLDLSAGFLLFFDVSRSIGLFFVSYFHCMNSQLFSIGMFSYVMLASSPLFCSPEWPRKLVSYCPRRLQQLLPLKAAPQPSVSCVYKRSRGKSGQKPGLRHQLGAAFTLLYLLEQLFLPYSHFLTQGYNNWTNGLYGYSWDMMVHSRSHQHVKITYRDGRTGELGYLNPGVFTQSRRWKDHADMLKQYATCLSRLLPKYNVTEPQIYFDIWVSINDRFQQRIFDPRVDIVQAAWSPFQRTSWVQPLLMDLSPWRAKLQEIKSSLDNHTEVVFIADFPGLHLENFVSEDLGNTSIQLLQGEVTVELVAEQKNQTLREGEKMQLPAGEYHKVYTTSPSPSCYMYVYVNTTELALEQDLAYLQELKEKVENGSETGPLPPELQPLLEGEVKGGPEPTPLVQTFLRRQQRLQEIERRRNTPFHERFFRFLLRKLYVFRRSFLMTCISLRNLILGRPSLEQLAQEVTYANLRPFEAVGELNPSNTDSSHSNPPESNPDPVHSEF
UniProt P41250: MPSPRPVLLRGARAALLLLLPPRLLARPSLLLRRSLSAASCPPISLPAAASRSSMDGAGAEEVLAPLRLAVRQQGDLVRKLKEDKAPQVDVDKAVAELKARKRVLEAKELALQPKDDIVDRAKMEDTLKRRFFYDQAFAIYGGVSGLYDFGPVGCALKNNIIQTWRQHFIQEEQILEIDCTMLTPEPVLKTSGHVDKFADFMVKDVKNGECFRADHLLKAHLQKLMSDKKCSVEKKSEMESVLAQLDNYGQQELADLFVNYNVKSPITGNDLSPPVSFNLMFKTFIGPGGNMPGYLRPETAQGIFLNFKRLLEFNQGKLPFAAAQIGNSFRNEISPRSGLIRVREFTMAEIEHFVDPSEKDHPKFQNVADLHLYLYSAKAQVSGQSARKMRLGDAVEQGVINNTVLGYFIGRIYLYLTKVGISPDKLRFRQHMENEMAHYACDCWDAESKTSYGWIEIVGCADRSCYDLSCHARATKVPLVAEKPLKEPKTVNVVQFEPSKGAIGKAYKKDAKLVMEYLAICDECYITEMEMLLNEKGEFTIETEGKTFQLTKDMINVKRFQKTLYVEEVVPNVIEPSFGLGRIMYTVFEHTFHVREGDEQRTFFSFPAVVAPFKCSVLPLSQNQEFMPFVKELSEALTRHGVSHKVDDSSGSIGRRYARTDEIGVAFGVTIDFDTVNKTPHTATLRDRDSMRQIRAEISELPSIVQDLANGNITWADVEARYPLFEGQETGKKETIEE
UniProt P50395: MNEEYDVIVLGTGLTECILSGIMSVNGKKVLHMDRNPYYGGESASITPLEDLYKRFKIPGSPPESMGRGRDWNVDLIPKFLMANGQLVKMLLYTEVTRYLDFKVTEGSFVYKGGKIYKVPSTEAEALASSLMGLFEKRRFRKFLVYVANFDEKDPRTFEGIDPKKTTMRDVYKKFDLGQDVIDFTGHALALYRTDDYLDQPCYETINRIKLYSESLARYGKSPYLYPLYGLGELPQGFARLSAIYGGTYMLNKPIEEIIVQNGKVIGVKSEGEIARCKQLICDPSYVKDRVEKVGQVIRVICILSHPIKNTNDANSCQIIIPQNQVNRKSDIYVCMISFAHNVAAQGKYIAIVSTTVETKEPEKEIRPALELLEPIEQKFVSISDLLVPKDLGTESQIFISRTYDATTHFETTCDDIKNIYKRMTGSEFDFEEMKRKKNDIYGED
UniProt O14772: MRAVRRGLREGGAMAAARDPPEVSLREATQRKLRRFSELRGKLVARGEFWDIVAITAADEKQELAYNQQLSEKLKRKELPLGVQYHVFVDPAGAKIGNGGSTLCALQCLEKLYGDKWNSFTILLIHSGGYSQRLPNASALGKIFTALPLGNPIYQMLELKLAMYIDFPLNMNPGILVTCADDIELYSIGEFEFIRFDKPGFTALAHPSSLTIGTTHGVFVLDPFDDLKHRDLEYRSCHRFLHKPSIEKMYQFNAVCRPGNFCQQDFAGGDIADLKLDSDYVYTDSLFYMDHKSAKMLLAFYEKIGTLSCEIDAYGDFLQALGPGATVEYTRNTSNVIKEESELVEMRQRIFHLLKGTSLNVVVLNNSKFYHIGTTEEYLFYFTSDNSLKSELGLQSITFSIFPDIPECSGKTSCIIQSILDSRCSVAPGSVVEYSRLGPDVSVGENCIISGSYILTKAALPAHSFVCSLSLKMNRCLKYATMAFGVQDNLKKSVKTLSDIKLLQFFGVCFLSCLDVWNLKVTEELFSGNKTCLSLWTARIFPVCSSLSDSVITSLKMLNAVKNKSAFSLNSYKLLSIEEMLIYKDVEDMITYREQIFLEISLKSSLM
UniProt Q9UET6: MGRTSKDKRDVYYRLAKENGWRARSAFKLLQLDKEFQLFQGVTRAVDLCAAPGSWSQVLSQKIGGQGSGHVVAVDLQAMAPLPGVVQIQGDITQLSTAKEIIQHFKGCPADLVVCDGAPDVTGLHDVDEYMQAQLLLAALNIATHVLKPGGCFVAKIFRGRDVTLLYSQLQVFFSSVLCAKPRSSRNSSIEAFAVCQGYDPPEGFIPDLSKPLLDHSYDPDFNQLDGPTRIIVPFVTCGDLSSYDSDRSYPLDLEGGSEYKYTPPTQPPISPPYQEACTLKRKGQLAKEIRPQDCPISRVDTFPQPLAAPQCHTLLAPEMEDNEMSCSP

Assays:
Test in all cases: log2 fold change, soluble protein after heating vs DMSO (PISA); higher = thermal stabilisation; K562 cells, 10 uM, 30 min; active = over 0.2 and 3.5 SD of the protein, either way, in both replicates (recomputed)
[1] = compound: CS(=O)(=O)c1ccc(-c2cnc(N)c(C(=O)Nc3ccccc3)n2)cc1
Outline: (§1)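 K562 cells at 2×10^6 cells/mL were treated for 30 min with 10 μM compound, and aliquots were heated for 3 min over 48°C-58°C before pooling. Extraction used PBS with 0.5% NP-40 at 4°C, and soluble protein was the supernatant after 21,000xg for 90 min, measured by TMTpro 16plex LC-MS/MS with channel sums equalised. Thermal stability values, relative to control samples and from duplicates, are log2 fold changes.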

[2] = compound: C[C@@H](Oc1cc(-c2cnn(C3CCNCC3)c2)cnc1N)c1c(Cl)ccc(F)c1Cl [crizotinib]
Outline: as §1

[3] = compound: C[C@@H]1COCCN1C2=NC(=NC(=C2)C3(CC3)S(=O)(=O)C)C4=C5C=CNC5=CC=C4
Outline: as §1

[4] = compound: C[C@H](C1=CC=C(C=C1)C(=O)NC2=C3C=CNC3=NC=C2)N
Outline: as §1

[5] = compound: C[C@H](Nc1ncnc2nc[nH]c12)c1cc2cccc(Cl)c2c(=O)n1-c1ccccc1 [duvelisib]
Outline: as §1

[6] = compound: Cc1cc(Nc2cc(CN3CCOCC3)c3nc(C)c(Cc4ccc(Cl)cc4F)n3n2)n[nH]1 [gandotinib]
Outline: as §1

[7] = compound: Cc1cc(Nc2cc(N3CCN(C)CC3)nc(Sc3ccc(NC(=O)C4CC4)cc3)n2)n[nH]1 [tozasertib]
Outline: as §1

[8] = compound: Cc1cc(SCc2sc(-c3ccc(C(F)(F)F)cc3)nc2C)ccc1OCC(=O)O
Outline: as §1

[9] = compound: Cc1ccc(-n2nc(C(C)(C)C)cc2NC(=O)Nc2ccc(OCCN3CCOCC3)c3ccccc23)cc1 [doramapimod]
Outline: as §1

[10] = compound: Cc1ccc(C(=O)N(CCCN)[C@@H](c2nc3cc(Cl)ccc3c(=O)n2Cc2ccccc2)C(C)C)cc1 [ispinesib]
Outline: as §1

[11] = compound: Cc1ccc(NC(=O)c2ccc(CN3CC[C@H](N(C)C)C3)c(C(F)(F)F)c2)cc1Nc1nccc(-c2cncnc2)n1 [bafetinib]
Outline: as §1

[12] = compound: Cc1cccc(CC(=O)N2CCc3c2ccc(-c2cn(C)c4ncnc(N)c24)c3F)n1
Outline: as §1

[13] = compound: Cc1cn(-c2cc(NC(=O)c3ccc(C)c(Nc4nccc(-c5cccnc5)n4)c3)cc(C(F)(F)F)c2)cn1 [nilotinib]
Outline: as §1

[14] = compound: Cc1nc(Nc2n[nH]c3c2CN(C(=O)N[C@H](CN(C)C)c2ccccc2)C3(C)C)c2sccc2n1
Outline: as §1

[15] = compound: Cc1nc(Nc2ncc(C(=O)Nc3c(C)cccc3Cl)s2)cc(N2CCN(CCO)CC2)n1 [dasatinib]
Outline: as §1

[16] = compound: Cc1ncc(-c2ccnc(Nc3ccc(S(C)(=O)=O)cc3)n2)n1C(C)C
Outline: as §1

[17] = compound: Cn1cc(-c2ccc3c(c2)CCN3C(=O)Cc2cccc(C(F)(F)F)c2)c2c(N)ncnc21
Outline: as §1

[18] = compound: Cn1cc(-c2ccc3nnc(C(F)(F)c4ccc5ncccc5c4)n3n2)cn1
Outline: as §1

[19] = compound: Cn1cncc1[C@@](N)(c1ccc(Cl)cc1)c1ccc2c(c1)c(-c1cccc(Cl)c1)cc(=O)n2C [tipifarnib]
Outline: as §1

[20] = compound: FC(F)(F)c1ccc(/C=C/c2nc(COc3ccc(CCCCn4ccnn4)cc3)co2)cc1 [mubritinib]
Outline: as §1

Measured: log2 fold change

GBA (UniProt P04062)
inactive: [1] -0.035 | [2] 0.069 | [3] -0.012 | [4] 0.023 | [5] 0.005 | [6] -0.013 | [7] -0.015 | [8] -0.034 | [9] 0.03 | [10] -0.013 | [11] -0.117 | [12] -0.03 | [13] 0.042 | [14] -0.028 | [15] 0.017 | [16] -0.053 | [17] -0.029 | [18] -0.039 | [19] 0.087 | [20] -0.033

FSCN1 (UniProt Q16658)
inactive: [1] -0.006 | [2] -0.009 | [3] 0.044 | [4] -0.101 | [5] -0.004 | [6] -0.06 | [7] -0.023 | [8] 0.015 | [9] -0.016 | [10] 0.068 | [11] 0.03 | [12] -0.001 | [13] 0.025 | [14] -0.037 | [15] -0.029 | [16] 0.002 | [17] 0.003 | [18] 0.01 | [19] -0.051 | [20] 0.026

GADD45GIP1 (UniProt Q8TAE8)
inactive: [1] 0 | [2] 0.047 | [3] -0.18 | [4] 0.078 | [5] -0.017 | [6] 0.097 | [7] -0.025 | [8] 0.019 | [9] 0.061 | [10] -0.055 | [11] 0.007 | [12] -0.093 | [13] 0.022 | [14] 0.061 | [15] 0.054 | [16] 0.013 | [17] -0.199 | [18] -0.047 | [19] 0.022 | [20] 0.056

GAN (UniProt Q9H2C0)
inactive: [1] 0.076 | [2] 0.02 | [3] 0.046 | [4] -0.045 | [5] 0.05 | [6] -0.109 | [7] -0.077 | [8] -0.014 | [9] -0.009 | [10] -0.1 | [11] -0.009 | [12] -0.024 | [13] 0.018 | [14] -0.04 | [15] -0.024 | [16] -0.07 | [17] 0.039 | [18] 0.021 | [19] 0.034 | [20] 0.029

GGT2 isoform 3 (UniProt P36268)
inactive: [1] -0.038 | [2] 0.108 | [3] -0.026 | [4] 0.008 | [5] 0.102 | [6] -0.053 | [7] 0.006 | [8] -0.066 | [9] -0.05 | [10] -0.007 | [11] 0.032 | [12] -0.002 | [13] 0.004 | [14] 0.052 | [15] 0.02 | [16] 0.007 | [17] -0.037 | [18] 0.027 | [19] 0.086 | [20] 0.013

FUBP1 (UniProt Q96AE4)
inactive: [1] -0.057 | [2] -0.13 | [3] -0.071 | [4] 0.029 | [5] 0.062 | [6] -0.049 | [7] -0.006 | [8] 0.064 | [9] 0.032 | [10] -0.021 | [11] -0.027 | [12] 0.073 | [13] 0.085 | [14] 0.01 | [15] -0.054 | [16] 0.042 | [17] 0.036 | [18] -0.049 | [19] -0.138 | [20] 0.107

Two consecutive entries already listed, quoted:
FSCN1 (UniProt Q16658)
inactive: [1] -0.006 | [2] -0.009 | [3] 0.044 | [4] -0.101 | [5] -0.004 | [6] -0.06 | [7] -0.023 | [8] 0.015 | [9] -0.016 | [10] 0.068 | [11] 0.03 | [12] -0.001 | [13] 0.025 | [14] -0.037 | [15] -0.029 | [16] 0.002 | [17] 0.003 | [18] 0.01 | [19] -0.051 | [20] 0.026

GADD45GIP1 (UniProt Q8TAE8)
inactive: [1] 0 | [2] 0.047 | [3] -0.18 | [4] 0.078 | [5] -0.017 | [6] 0.097 | [7] -0.025 | [8] 0.019 | [9] 0.061 | [10] -0.055 | [11] 0.007 | [12] -0.093 | [13] 0.022 | [14] 0.061 | [15] 0.054 | [16] 0.013 | [17] -0.199 | [18] -0.047 | [19] 0.022 | [20] 0.056

Carrying on.

GART (UniProt P22102)
inactive: [1] 0.099 | [2] -0.069 | [3] 0.059 | [4] -0.017 | [5] 0.03 | [6] -0.055 | [7] 0.065 | [8] 0.065 | [9] 0.045 | [10] -0.092 | [11] 0.059 | [12] 0.05 | [13] 0.075 | [14] -0.032 | [15] -0.077 | [16] 0.017 | [17] 0.086 | [18] 0.092 | [19] -0.08 | [20] 0.137

GGNBP2 (UniProt Q9H3C7)
inactive: [1] 0.035 | [2] -0.179 | [3] -0.28 | [4] 0.171 | [5] -0.2 | [6] -0.049 | [7] -0.127 | [8] -0.231 | [9] 0.192 | [10] -0.038 | [11] 0.178 | [12] -0.042 | [13] -0.109 | [14] -0.027 | [15] 0.132 | [16] 0 | [17] -0.16 | [18] -0.253 | [19] 0.033 | [20] -0.1

GART (UniProt C9JZG2)
inactive: [1] -0.015 | [2] -0.08 | [3] -0.032 | [4] 0.152 | [5] 0.188 | [6] -0.28 | [7] -0.186 | [8] -0.065 | [9] 0.149 | [10] -0.257 | [11] 0.13 | [12] -0.019 | [13] -0.094 | [14] 0.042 | [15] -0.039 | [16] -0.067 | [17] 0.092 | [18] 0.162 | [19] -0.001 | [20] 0.08

GCN1 (UniProt Q92616)
inactive: [1] 0.125 | [2] -0.135 | [3] -0.421 | [4] 0.646 | [5] -0.241 | [6] 0.11 | [7] 0.019 | [8] 0.169 | [9] 0.39 | [10] -0.382 | [11] 0.185 | [12] 0.003 | [13] -0.031 | [14] -0.06 | [15] 0.078 | [16] 0.03 | [17] -0.315 | [18] -0.21 | [19] 0.023 | [20] -0.255

GGCX (UniProt P38435)
inactive: [1] -0.061 | [2] 0.026 | [3] -0.002 | [4] -0.019 | [5] -0.06 | [6] 0.046 | [7] -0.085 | [8] -0.013 | [9] 0.065 | [10] -0.087 | [11] 0.038 | [12] -0.081 | [13] 0.035 | [14] -0.074 | [15] -0.104 | [16] 0.012 | [17] 0.077 | [18] -0.043 | [19] -0.098 | [20] -0.014

FRRS1 (UniProt Q6ZNA5)
inactive: [1] 0.019 | [2] 0.032 | [3] 0.006 | [4] -0.081 | [5] 0.067 | [6] -0.073 | [7] 0.043 | [8] 0.064 | [9] -0.018 | [10] 0.052 | [11] -0.196 | [12] -0.167 | [13] 0.059 | [14] -0.097 | [15] 0.039 | [16] 0.05 | [17] 0.006 | [18] 0.012 | [19] -0.081 | [20] 0.002

GARS1 (UniProt P41250)
inactive: [1] 0.017 | [2] 0.045 | [3] 0.032 | [4] -0.044 | [5] 0.009 | [6] 0.01 | [7] -0.033 | [8] -0.041 | [9] -0.019 | [10] 0.022 | [11] -0.039 | [12] -0.033 | [13] 0.005 | [14] 0.003 | [15] 0.037 | [16] 0.01 | [17] 0.005 | [18] -0.005 | [19] 0.026 | [20] 0.028

GDI2 (UniProt P50395)
inactive: [1] 0.005 | [2] 0.02 | [3] 0.009 | [4] -0.055 | [5] 0.034 | [6] -0.121 | [7] 0.025 | [8] 0.003 | [9] -0.025 | [10] 0.04 | [11] 0.012 | [12] -0.002 | [13] -0.004 | [14] 0.018 | [15] -0.03 | [16] -0.021 | [17] 0.016 | [18] -0.035 | [19] -0.06 | [20] 0.032

FPGT (UniProt O14772)
inactive: [1] 0.033 | [2] -0.037 | [3] 0.09 | [4] -0.057 | [5] 0.007 | [6] -0.029 | [7] 0.007 | [8] 0.007 | [9] -0.009 | [10] -0.09 | [11] -0.033 | [12] 0.103 | [13] -0.004 | [14] 0.024 | [15] -0.085 | [16] 0.016 | [17] 0.082 | [18] 0.028 | [19] -0.085 | [20] 0.024

FTSJ1 (UniProt Q9UET6)
inactive: [1] 0.051 | [2] -0.095 | [3] 0.061 | [4] 0.026 | [5] 0.106 | [6] -0.058 | [7] -0.014 | [8] 0 | [9] 0.025 | [10] -0.08 | [11] 0.031 | [12] -0.016 | [13] -0.027 | [14] 0.064 | [15] -0.083 | [16] -0.014 | [17] 0.016 | [18] 0.045 | [19] -0.015 | [20] 0.077
